Reference: PubChem BioAssay AID1159584 (Peter MacCallum Cancer Centre, 2016)

- Assay: 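Genes that CDH1-null MCF10A cells selectively depend on to survive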 (primary screen)
- Cells: human MCF10A breast epithelial cells, parental and CDH1-null
- Reagents: siRNA against human genes
- Read-out: 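Cell viability by CellTiter-Glo ATP luminescence, each line scaled to the mean of mock wells across plates, then CDH1-null over parental ratio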
- Direction: CDH1-null / parental viability ratio: higher = CDH1-null cells survive relatively better than parental; CDH1-null viability vs mock: higher = more viable CDH1-null cells
The whole screen tested about 18,000 reagents; shown is a part drawn at random. Not all columns of the deposit are shown. No sequences are given here. Not stated in the record: the amount of reagent, the time to read-out.

| gene symbol | CDH1-null / parental viability ratio | CDH1-null viability vs mock (fraction of mock) |
| --- | --- | --- |
| CCDC8 (GeneID 83987) | 0.97 | 0.34 |
| SSR2 (GeneID 6746) | 1.04 | 0.99 |
| PPP2R1B (GeneID 5519) | 1.36 | 0.79 |
| HS2ST1 (GeneID 9653) | 1.01 | 0.93 |
| PTCD3 (GeneID 55037) | 0.71 | 0.51 |
| TMEM127 (GeneID 55654) | 0.84 | 0.42 |
| EIF4B (GeneID 1975) | 0.95 | 0.76 |
| PAG1 (GeneID 55824) | 1.02 | 0.98 |
| SERHL (GeneID 94009) | 1.05 | 0.8 |
| KIR3DL2 (GeneID 3812) | 1.16 | 0.88 |
| DALRD3 (GeneID 55152) | 0.75 | 0.38 |
| FNBP1 (GeneID 23048) | 1.04 | 0.96 |
| DYNC2I2 (GeneID 89891) | 1.13 | 0.54 |
| MAN2A1 (GeneID 4124) | 1.04 | 0.79 |
| BHLHE22 (GeneID 27319) | 0.87 | 0.84 |
| AKAP8 (GeneID 10270) | 0.91 | 0.6 |
| KLKB1 (GeneID 3818) | 1.29 | 0.9 |
| CHRNA9 (GeneID 55584) | 1.17 | 1.12 |
| BMAL1 (GeneID 406) | 1.07 | 0.87 |
| AGBL1 (GeneID 123624) | 1.08 | 0.97 |
| RDH5 (GeneID 5959) | 0.9 | 0.92 |
| TNFRSF10A (GeneID 8797) | 0.96 | 0.88 |
| SPRR3 (GeneID 6707) | 0.66 | 0.61 |
| HTRA2 (GeneID 27429) | 1.18 | 0.9 |
| POU2F3 (GeneID 25833) | 1.06 | 0.85 |
| PLSCR1 (GeneID 5359) | 0.93 | 0.76 |
| ACBD3 (GeneID 64746) | 0.88 | 0.84 |
| KDM8 (GeneID 79831) | 1.44 | 0.69 |
| SSB (GeneID 6741) | 0.83 | 0.48 |
| TRIM54 (GeneID 57159) | 0.96 | 0.98 |
| RASGRP3 (GeneID 25780) | 1.1 | 0.56 |
| MMP25 (GeneID 64386) | 1.3 | 0.26 |
| PEX16 (GeneID 9409) | 0.49 | 0.38 |
| SERPINA3 (GeneID 12) | 0.93 | 0.67 |
| GDPD3 (GeneID 79153) | 0.94 | 0.74 |
| RUFY4 (GeneID 285180) | 0.88 | 0.72 |
| CLEC2L (GeneID 154790) | 1.01 | 0.97 |
| FTSJ3 (GeneID 117246) | 1.06 | 0.83 |
| RBM28 (GeneID 55131) | 0.7 | 0.42 |
| DEFB119 (GeneID 245932) | 0.95 | 0.82 |
| PIR (GeneID 8544) | 1.09 | 1 |
| SLC44A5 (GeneID 204962) | 0.75 | 0.84 |
| PFDN4 (GeneID 5203) | 1.06 | 0.9 |
| GNA15 (GeneID 2769) | 1.29 | 0.62 |
| WIF1 (GeneID 11197) | 0.93 | 0.9 |
| SRGAP2 (GeneID 23380) | 0.74 | 0.71 |
| TMT1A (GeneID 25840) | 0.68 | 0.42 |
| GPR152 (GeneID 390212) | 0.8 | 0.78 |
| ZDHHC2 (GeneID 51201) | 1.13 | 0.86 |
| LIMA1 (GeneID 51474) | 0.95 | 0.84 |
| FBXO40 (GeneID 51725) | 0.93 | 0.82 |
| OR8D4 (GeneID 338662) | 0.91 | 0.88 |
| KLF15 (GeneID 28999) | 0.97 | 0.86 |
| ZNHIT1 (GeneID 10467) | 1.26 | 0.92 |
| RAB7A (GeneID 7879) | 1 | 0.92 |
| FAM27E5 (GeneID 284123) | 1.27 | 0.56 |
| ARF1 (GeneID 375) | 0.89 | 0.48 |
| ATP2A2 (GeneID 488) | 1.17 | 1.04 |
| GP6 (GeneID 51206) | 0.95 | 0.84 |
| DSPP (GeneID 1834) | 0.94 | 0.68 |
| DUSP22 (GeneID 56940) | 1.19 | 0.87 |
| BIRC2 (GeneID 329) | 0.9 | 0.43 |
| RAD21 (GeneID 5885) | 1.08 | 0.8 |
| PAFAH2 (GeneID 5051) | 0.94 | 0.94 |
| OR51G2 (GeneID 81282) | 1.04 | 0.72 |
| ZMYM2 (GeneID 7750) | 0.84 | 0.76 |
| DDX43 (GeneID 55510) | 0.79 | 0.8 |
| EFS (GeneID 10278) | 0.97 | 0.72 |
